Data published in paper PMC3623819.
Read-outs that look alike come from different tables or passages of the source. No constants are given. Whether binding was seen depends on the method and setting. In cells and extracts the contact can be indirect. Here binding means that the protein was enriched with, or labelled near, the bait; the list need not be complete. For some assays here: Where a sequence is shown, tags or fusion partners need not be part of it. Blank lines part the entries; values can stand above or below the molecule they belong to.

Sequences of proteins named here, by UniProt entry; tags and fusion partners are left off. Residues count along the entry.
UniProt Q7LBC6: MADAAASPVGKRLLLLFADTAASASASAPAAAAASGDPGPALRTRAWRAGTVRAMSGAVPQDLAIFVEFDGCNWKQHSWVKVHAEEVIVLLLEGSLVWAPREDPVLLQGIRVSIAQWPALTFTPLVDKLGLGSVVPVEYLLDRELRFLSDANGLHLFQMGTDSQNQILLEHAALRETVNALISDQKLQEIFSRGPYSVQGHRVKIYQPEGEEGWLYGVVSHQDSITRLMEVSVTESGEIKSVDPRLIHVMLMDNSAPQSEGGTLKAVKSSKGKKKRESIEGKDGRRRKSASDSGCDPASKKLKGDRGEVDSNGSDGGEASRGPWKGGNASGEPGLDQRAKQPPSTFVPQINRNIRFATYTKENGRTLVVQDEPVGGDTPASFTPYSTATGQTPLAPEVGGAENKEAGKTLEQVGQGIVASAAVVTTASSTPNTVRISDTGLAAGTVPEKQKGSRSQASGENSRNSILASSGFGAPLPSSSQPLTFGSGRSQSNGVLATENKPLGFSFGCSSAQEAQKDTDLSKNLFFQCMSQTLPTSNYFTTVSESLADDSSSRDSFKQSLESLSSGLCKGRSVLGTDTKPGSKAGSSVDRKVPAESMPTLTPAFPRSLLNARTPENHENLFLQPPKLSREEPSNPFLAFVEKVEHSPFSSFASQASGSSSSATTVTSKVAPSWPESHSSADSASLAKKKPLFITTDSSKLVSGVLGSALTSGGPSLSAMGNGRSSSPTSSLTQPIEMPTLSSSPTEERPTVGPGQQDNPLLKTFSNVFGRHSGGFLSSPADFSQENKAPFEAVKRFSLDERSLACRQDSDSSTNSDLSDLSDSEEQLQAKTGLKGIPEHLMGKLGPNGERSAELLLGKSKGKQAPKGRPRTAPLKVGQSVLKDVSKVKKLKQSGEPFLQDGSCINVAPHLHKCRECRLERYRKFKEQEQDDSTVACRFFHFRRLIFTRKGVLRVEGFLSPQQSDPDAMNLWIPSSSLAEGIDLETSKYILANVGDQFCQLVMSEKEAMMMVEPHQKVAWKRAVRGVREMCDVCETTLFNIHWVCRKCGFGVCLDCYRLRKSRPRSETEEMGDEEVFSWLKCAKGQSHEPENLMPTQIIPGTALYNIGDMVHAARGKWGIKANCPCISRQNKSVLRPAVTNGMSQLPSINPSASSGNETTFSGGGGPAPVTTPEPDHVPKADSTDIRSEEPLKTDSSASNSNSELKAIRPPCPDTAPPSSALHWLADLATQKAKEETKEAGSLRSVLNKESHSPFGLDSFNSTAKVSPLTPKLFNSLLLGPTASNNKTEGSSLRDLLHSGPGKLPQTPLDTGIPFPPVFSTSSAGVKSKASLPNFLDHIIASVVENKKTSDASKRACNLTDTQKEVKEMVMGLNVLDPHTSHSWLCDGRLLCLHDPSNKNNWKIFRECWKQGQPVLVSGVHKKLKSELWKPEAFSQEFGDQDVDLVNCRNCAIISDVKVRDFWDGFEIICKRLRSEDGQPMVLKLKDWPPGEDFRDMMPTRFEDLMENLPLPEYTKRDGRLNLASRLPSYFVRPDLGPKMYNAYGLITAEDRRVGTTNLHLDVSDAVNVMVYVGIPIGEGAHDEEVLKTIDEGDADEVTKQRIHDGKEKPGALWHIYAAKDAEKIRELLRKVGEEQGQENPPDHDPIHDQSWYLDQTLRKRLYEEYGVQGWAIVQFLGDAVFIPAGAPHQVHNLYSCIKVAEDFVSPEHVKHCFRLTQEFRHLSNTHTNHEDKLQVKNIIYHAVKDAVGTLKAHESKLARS
UniProt Q8N9R8: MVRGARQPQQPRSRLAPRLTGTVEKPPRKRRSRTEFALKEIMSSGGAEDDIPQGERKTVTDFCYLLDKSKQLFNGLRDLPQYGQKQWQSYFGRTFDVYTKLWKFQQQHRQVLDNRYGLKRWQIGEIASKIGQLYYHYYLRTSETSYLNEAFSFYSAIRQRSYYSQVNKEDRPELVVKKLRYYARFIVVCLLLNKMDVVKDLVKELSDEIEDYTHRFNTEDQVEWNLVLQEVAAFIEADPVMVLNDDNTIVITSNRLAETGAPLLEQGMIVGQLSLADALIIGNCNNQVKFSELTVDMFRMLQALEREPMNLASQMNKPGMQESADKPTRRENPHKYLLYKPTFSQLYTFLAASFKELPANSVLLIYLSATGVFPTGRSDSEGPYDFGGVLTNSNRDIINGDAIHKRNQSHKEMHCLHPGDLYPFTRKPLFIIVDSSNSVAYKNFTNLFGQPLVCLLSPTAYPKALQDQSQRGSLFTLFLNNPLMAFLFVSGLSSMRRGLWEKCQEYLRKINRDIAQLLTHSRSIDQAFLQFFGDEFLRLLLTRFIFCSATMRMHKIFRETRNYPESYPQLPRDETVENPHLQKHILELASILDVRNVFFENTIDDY
UniProt O60568, residues 25-738: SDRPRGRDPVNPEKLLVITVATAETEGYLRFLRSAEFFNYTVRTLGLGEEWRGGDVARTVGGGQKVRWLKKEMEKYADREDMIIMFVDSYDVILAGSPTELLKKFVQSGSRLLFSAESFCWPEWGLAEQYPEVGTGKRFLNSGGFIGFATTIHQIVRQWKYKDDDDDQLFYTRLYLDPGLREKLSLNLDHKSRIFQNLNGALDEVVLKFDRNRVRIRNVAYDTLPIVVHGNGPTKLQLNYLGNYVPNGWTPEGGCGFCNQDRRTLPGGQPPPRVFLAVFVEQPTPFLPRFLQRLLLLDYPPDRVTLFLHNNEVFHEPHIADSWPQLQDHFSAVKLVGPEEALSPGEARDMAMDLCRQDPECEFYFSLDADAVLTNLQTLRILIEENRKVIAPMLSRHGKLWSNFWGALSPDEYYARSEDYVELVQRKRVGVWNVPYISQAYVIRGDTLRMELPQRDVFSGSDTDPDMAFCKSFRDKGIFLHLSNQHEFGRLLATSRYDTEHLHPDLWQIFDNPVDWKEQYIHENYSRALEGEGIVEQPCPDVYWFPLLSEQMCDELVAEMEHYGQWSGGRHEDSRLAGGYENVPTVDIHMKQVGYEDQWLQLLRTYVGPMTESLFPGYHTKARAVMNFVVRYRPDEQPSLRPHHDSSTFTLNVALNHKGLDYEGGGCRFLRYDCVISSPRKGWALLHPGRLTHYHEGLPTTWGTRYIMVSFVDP

Experiments:
Experiment in all cases: affinity purification with mass spectrometry; Avi-tagged bait, biotinylated by co-expressed BirA, overexpressed in HEK293T; lysate (50 mM Tris-Cl pH 7.4, 100 mM NaCl, 0.4% NP40, DNAse I) on streptavidin agarose 2 h; SDS gel, iTRAQ quantitative MS against mock-transfected control
[1] = molecular target: Avi-tagged KDM3B (human) (UniProt Q7LBC6)
[2] = molecular target: T1, Avi-tagged KDM3A (human) (UniProt Q9Y4C1)
T1 sequence (chain, biotin on the Avi-tag (by co-expressed BirA)): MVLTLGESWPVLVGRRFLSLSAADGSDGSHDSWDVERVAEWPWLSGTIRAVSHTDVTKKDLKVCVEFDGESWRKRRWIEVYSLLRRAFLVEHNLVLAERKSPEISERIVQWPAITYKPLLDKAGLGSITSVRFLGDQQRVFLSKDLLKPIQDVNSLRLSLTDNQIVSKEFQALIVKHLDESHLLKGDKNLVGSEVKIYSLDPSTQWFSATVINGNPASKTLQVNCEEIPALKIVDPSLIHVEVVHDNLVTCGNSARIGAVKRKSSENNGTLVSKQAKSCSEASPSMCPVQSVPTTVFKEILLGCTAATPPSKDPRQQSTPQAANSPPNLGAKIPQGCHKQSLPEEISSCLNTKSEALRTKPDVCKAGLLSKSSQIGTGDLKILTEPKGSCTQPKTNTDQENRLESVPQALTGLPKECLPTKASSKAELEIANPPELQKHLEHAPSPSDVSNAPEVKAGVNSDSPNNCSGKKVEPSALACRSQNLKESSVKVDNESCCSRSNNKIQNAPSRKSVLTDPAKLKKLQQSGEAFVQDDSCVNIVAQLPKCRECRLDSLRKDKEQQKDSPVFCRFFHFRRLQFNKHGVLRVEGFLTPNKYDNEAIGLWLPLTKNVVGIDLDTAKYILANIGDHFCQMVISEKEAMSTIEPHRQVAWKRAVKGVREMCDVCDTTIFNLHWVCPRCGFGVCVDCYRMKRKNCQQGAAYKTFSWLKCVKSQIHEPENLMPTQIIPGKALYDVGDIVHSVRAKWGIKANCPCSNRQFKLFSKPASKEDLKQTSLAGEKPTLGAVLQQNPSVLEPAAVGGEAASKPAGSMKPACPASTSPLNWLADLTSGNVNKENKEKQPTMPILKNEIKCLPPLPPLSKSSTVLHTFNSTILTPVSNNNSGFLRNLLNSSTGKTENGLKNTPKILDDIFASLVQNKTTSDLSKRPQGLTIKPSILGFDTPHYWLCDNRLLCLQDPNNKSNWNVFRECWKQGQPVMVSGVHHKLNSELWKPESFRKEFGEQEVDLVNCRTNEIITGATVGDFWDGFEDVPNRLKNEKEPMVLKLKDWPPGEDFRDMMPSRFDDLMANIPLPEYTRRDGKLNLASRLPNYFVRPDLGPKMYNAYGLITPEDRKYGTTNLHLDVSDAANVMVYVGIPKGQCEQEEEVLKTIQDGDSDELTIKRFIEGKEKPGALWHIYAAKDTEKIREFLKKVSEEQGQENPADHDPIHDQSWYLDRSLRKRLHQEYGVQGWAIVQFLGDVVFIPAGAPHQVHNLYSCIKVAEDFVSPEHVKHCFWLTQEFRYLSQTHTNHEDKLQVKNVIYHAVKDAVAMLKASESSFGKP

[3] = molecular target: Avi-tagged KDM3B (human) (UniProt Q7LBC6); remark: listed apart in the source
[4] = molecular target: T1, Avi-tagged KDM3A (human); remark: listed apart in the source

binding [1]: binds
Molecule: SCAI (Suppressor of cancer cell invasion), endogenous (from UniProt Q8N9R8 1-606)

binding [2]: binds
Molecule: HSP8 (human (endogenous in HEK293T))

binding [1]: binds
Molecule: procollagen-lysine dioxygenase PLOD3 (from UniProt O60568 25-738) (enzyme)

binding [3]: binds
B1: procollagen-lysine dioxygenase PLOD2 (enzyme, UniProt O00469 26-737)
chain: ADSEKPSSIPTDKLLVITVATKESDGFHRFMQSAKYFNYTVKVLGQGEEWRGGDGINSIGGGQKVRLMKEVMEHYADQDDLVVMFTECFDVIFAGGPEEVLKKFQKANHKVVFAADGILWPDKRLADKYPVVHIGKRYLNSGGFIGYAPYVNRIVQQWNLQDNDDDQLFYTKVYIDPLKREAINITLDHKCKIFQTLNGAVDEVVLKFENGKARAKNTFYETLPVAINGNGPTKILLNYFGNYVPNSWTQDNGCTLCEFDTVDLSAVDVHPNVSIGVFIEQPTPFLPRFLDILLTLDYPKEALKLFIHNKEVYHEKDIKVFFDKAKHEIKTIKIVGPEENLSQAEARNMGMDFCRQDEKCDYYFSVDADVVLTNPRTLKILIEQNRKIIAPLVTRHGKLWSNFWGALSPDGYYARSEDYVDIVQGNRVGVWNVPYMANVYLIKGKTLRSEMNERNYFVRDKLDPDMALCRNAREMGVFMYISNRHEFGRLLSTANYNTSHYNNDLWQIFENPVDWKEKYINRDYSKIFTENIVEQPCPDVFWFPIFSEKACDELVEEMEHYGKWSGGKHHDSRISGGYENVPTDDIHMKQVDLENVWLHFIREFIAPVTLKVFAGYYTKGFALLNFVVKYSPERQRSLRPHHDASTFTINIALNNVGEDFQGGGCKFLRYNCSIESPRKGWSFMHPGRLTHLHEGLPVKNGTRYIAVSFIDP

binding [4]: binds
B2: suppressor of G2 allele of SKP1 homolog (SUGT1) (protein, UniProt Q9Y2Z0 1-365)
chain: MAAAAAGTATSQRFFQSFSDALIDEDPQAALEELTKALEQKPDDAQYYCQRAYCHILLGNYCVAVADAKKSLELNPNNSTAMLRKGICEYHEKNYAAALETFTEGQKLDIETGFHRVGQAGLQLLTSSDPPALDSQSAGITGADANFSVWIKRCQEAQNGSESEVWTHQSKIKYDWYQTESQVVITLMIKNVQKNDVNVEFSEKELSALVKLPSGEDYNLKLELLHPIIPEQSTFKVLSTKIEIKLKKPEAVRWEKLEGQGDVPTPKQFVADVKNLYPSSSPYTRNWDKLVGEIKEEEKNEKLEGDAALNRLFQQIYSDGSDEVKRAMNKSFMESGGTVLSTNWSDVGKRKVEINPPDDMEWKKY

binding [3]: binds | binding [4]: binds
B3: TRAP1 (protein, UniProt Q12931 60-704)
chain: STQTAEDKEEPLHSIISSTESVQGSTSKHEFQAETKKLLDIVARSLYSEKEVFIRELISNASDALEKLRHKLVSDGQALPEMEIHLQTNAEKGTITIQDTGIGMTQEELVSNLGTIARSGSKAFLDALQNQAEASSKIIGQFGVGFYSAFMVADRVEVYSRSAAPGSLGYQWLSDGSGVFEIAEASGVRTGTKIIIHLKSDCKEFSSEARVRDVVTKYSNFVSFPLYLNGRRMNTLQAIWMMDPKDVREWQHEEFYRYVAQAHDKPRYTLHYKTDAPLNIRSIFYVPDMKPSMFDVSRELGSSVALYSRKVLIQTKATDILPKWLRFIRGVVDSEDIPLNLSRELLQESALIRKLRDVLQQRLIKFFIDQSKKDAEKYAKFFEDYGLFMREGIVTATEQEVKEDIAKLLRYESSALPSGQLTSLSEYASRMRAGTRNIYYLCAPNRHLAEHSPYYEAMKKKDTEVLFCFEQFDELTLLHLREFDKKKLISVETDIVVDHYKEEKFEDRSPAAECLSEKETEELMAWMRNVLGSRVTNVKVTLRLDTHPAMVTVLEMGAARHFLRMQQLAKTQEERAQLLQPTLEINPRHALIKKLNQLRASEPGLAQLLVDQIYENAMIAAGLVDDPRAMVGRLNELLVKALERH

binding [3]: binds
B4: procollagen-lysine dioxygenase PLOD1 (enzyme, UniProt Q02809 19-727)
chain: KGDAKPEDNLLVLTVATKETEGFRRFKRSAQFFNYKIQALGLGEDWNVEKGTSAGGGQKVRLLKKALEKHADKEDLVILFADSYDVLFASGPRELLKKFRQARSQVVFSAEELIYPDRRLETKYPVVSDGKRFLGSGGFIGYAPNLSKLVAEWEGQDSDSDQLFYTKIFLDPEKREQINITLDHRCRIFQNLDGALDEVVLKFEMGHVRARNLAYDTLPVLIHGNGPTKLQLNYLGNYIPRFWTFETGCTVCDEGLRSLKGIGDEALPTVLVGVFIEQPTPFVSLFFQRLLRLHYPQKHMRLFIHNHEQHHKAQVEEFLAQHGSEYQSVKLVGPEVRMANADARNMGADLCRQDRSCTYYFSVDADVALTEPNSLRLLIQQNKNVIAPLMTRHGRLWSNFWGALSADGYYARSEDYVDIVQGRRVGVWNVPYISNIYLIKGSALRGELQSSDLFHHSKLDPDMAFCANIRQQDVFMFLTNRHTLGHLLSLDSYRTTHLHNDLWEVFSNPEDWKEKYIHQNYTKALAGKLVETPCPDVYWFPIFTEVACDELVEEMEHFGQWSLGNNKDNRIQGGYENVPTIDIHMNQIGFEREWHKFLLEYIAPMTEKLYPGYYTRAQFDLAFVVRYKPDEQPSLMPHHDASTFTINIALNRVGVDYEGGGCRFLRYNCSIRAPRKGWTLMHPGRLTHYHEGLPTTRGTRYIAVSFVDP
